Measured values taken from the supplement of paper PMC6078165.

Tested on: HCC1143
Assay: relative JC-1 red fluorescence (viability) vs pre-drug, coculture with fibroblast (fraction); higher = more viable cancer cells
Method: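 JC-1 labelled TNBC cells cocultured 1:1 (1,500 cells each) with CellTrace Violet stained primary or stromal fibroblasts in 384-well plates in FluoroBrite medium, treated with one of 42 anticancer drugs at 0.1, 1, 10 or 100 uM. JC-1 red fluorescence (mitochondrial integrity in cancer cells only) was read by plate reader every 8 h for 72 h. Values are normalised to each well's pre-drug value. The stock of one drug was tenfold lower, so its dose labels may be too high.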

CC(=O)O[C@H]1C(=O)[C@@]2(C)[C@H]([C@H](OC(=O)c3ccccc3)[C@]3(O)C[C@H](OC(=O)[C@H](O)[C@@H](NC(=O)c4ccccc4)c4ccccc4)C(C)=C1C3(C)C)[C@]1(OC(C)=O)CO[C@@H]1C[C@@H]2O [Paclitaxel]
relative JC-1 red fluorescence
Conditions | 8 h | 16 h | 24 h | 32 h | 40 h | 48 h | 56 h | 64 h | 72 h
0.1 µM, coculture fibroblast: C12385 | 0.878 ± 0.016 | 0.765 ± 0.028 | 0.708 ± 0.063 | 0.64 ± 0.09 | 0.586 ± 0.1 | 0.551 ± 0.099 | 0.527 ± 0.1 | 0.511 ± 0.1 | 0.512 ± 0.098
0.1 µM, coculture fibroblast: H6013 | 0.774 ± 0.01 | 0.641 ± 0.011 | 0.615 ± 0.012 | 0.6002 ± 0.0043 | 0.541 ± 0.0096 | 0.55 ± 0.016 | 0.524 ± 0.015 | 0.518 ± 0.023 | 0.464 ± 0.029
0.1 µM, coculture fibroblast: H6019 | 0.773 ± 0.0073 | 0.65 ± 0.011 | 0.584 ± 0.0094 | 0.5113 ± 0.0034 | 0.45954 ± 0.00028 | 0.4411 ± 0.0037 | 0.4057 ± 0.0034 | 0.3877 ± 0.001 | 0.3742 ± 0.0034
0.1 µM, coculture fibroblast: H6076 | 0.811 ± 0.033 | 0.711 ± 0.024 | 0.6673 ± 0.0049 | 0.675 ± 0.032 | 0.586 ± 0.016 | 0.577 ± 0.027 | 0.558 ± 0.031 | 0.539 ± 0.036 | 0.57 ± 0.043
0.1 µM, coculture fibroblast: H6231 | 0.832 ± 0.029 | 0.821 ± 0.033 | 0.685 ± 0.055 | 0.633 ± 0.066 | 0.565 ± 0.057 | 0.53 ± 0.068 | 0.482 ± 0.072 | 0.453 ± 0.074 | 0.444 ± 0.071
0.1 µM, coculture fibroblast: HADF | 0.738 ± 0.019 | 0.631 ± 0.029 | 0.581 ± 0.017 | 0.551 ± 0.019 | 0.4469 ± 0.0025 | 0.43 ± 0.0072 | 0.395 ± 0.0098 | 0.384 ± 0.014 | 0.328 ± 0.024
0.1 µM, coculture fibroblast: HCFa | 0.822 ± 0.037 | 0.698 ± 0.05 | 0.652 ± 0.056 | 0.636 ± 0.052 | 0.539 ± 0.051 | 0.517 ± 0.051 | 0.474 ± 0.06 | 0.442 ± 0.053 | 0.417 ± 0.05
0.1 µM, coculture fibroblast: HCPF | 0.818 ± 0.0099 | 0.839 ± 0.053 | 0.753 ± 0.04 | 0.6445 ± 0.0045 | 0.646 ± 0.053 | 0.596 ± 0.048 | 0.549 ± 0.056 | 0.509 ± 0.053 | 0.505 ± 0.046
0.1 µM, coculture fibroblast: HHSteC | 0.863 ± 0.053 | 0.73 ± 0.066 | 0.666 ± 0.05 | 0.607 ± 0.043 | 0.516 ± 0.045 | 0.484 ± 0.046 | 0.443 ± 0.063 | 0.414 ± 0.049 | 0.341 ± 0.05
0.1 µM, coculture fibroblast: HMF | 0.818 ± 0.015 | 0.7568 ± 0.0019 | 0.676 ± 0.012 | 0.691 ± 0.028 | 0.584 ± 0.028 | 0.568 ± 0.03 | 0.531 ± 0.026 | 0.518 ± 0.024 | 0.523 ± 0.029
0.1 µM, coculture fibroblast: HPFa | 0.90234 ± 0.00028 | 0.78 ± 0.052 | 0.69 ± 0.025 | 0.594 ± 0.0063 | 0.502 ± 0.019 | 0.471 ± 0.035 | 0.418 ± 0.034 | 0.395 ± 0.036 | 0.38 ± 0.031
0.1 µM, coculture fibroblast: HUF | 0.854 ± 0.029 | 0.715 ± 0.018 | 0.652 ± 0.03 | 0.57 ± 0.042 | 0.507 ± 0.064 | 0.485 ± 0.069 | 0.426 ± 0.073 | 0.396 ± 0.072 | 0.383 ± 0.068
0.1 µM, coculture fibroblast: Hs5 | 0.872 ± 0.025 | 0.844 ± 0.073 | 0.814 ± 0.055 | 0.824 ± 0.037 | 0.726 ± 0.052 | 0.688 ± 0.04 | 0.653 ± 0.021 | 0.621 ± 0.011 | 0.6318 ± 0.00073
0.1 µM, coculture fibroblast: Hs27A | 0.7159 ± 0.0017 | 0.641 ± 0.0087 | 0.581 ± 0.0076 | 0.615 ± 0.016 | 0.521 ± 0.0075 | 0.539 ± 0.01 | 0.506 ± 0.0056 | 0.498 ± 0.013 | 0.419 ± 0.017
0.1 µM, coculture fibroblast: Hs343T | 0.821 ± 0.049 | 0.737 ± 0.0081 | 0.687 ± 0.028 | 0.676 ± 0.061 | 0.57 ± 0.07 | 0.534 ± 0.076 | 0.495 ± 0.071 | 0.479 ± 0.061 | 0.468 ± 0.058
0.1 µM, coculture fibroblast: WS1 | 0.842 ± 0.03 | 0.692 ± 0.018 | 0.5946 ± 0.0026 | 0.488 ± 0.018 | 0.408 ± 0.02 | 0.36852 ± 0.00034 | 0.345 ± 0.007 | 0.337 ± 0.0076 | 0.336 ± 0.011
1 µM, coculture fibroblast: C12385 | 0.8294 ± 0.0051 | 0.684 ± 0.019 | 0.633 ± 0.013 | 0.548 ± 0.012 | 0.487 ± 0.0045 | – | – | – | –
1 µM, coculture fibroblast: H6013 | 0.769 ± 0.013 | 0.6643 ± 0.0036 | 0.621 ± 0.0064 | 0.608 ± 0.0079 | 0.539 ± 0.022 | – | – | – | –
1 µM, coculture fibroblast: H6019 | 0.814 ± 0.021 | 0.693 ± 0.015 | 0.647 ± 0.013 | 0.566 ± 0.0023 | 0.53 ± 0.0072 | – | – | – | –
1 µM, coculture fibroblast: H6076 | 0.8053 ± 0.0027 | 0.756 ± 0.013 | 0.707 ± 0.009 | 0.709 ± 0.0086 | 0.634 ± 0.0085 | – | – | – | –
1 µM, coculture fibroblast: H6231 | 0.8257 ± 0.0043 | 0.756 ± 0.017 | 0.642 ± 0.039 | 0.608 ± 0.0077 | 0.527 ± 0.02 | – | – | – | –
1 µM, coculture fibroblast: HADF | 0.755 ± 0.042 | 0.65 ± 0.035 | 0.585 ± 0.03 | 0.547 ± 0.047 | 0.453 ± 0.062 | – | – | – | –
1 µM, coculture fibroblast: HCFa | 0.838 ± 0.052 | 0.722 ± 0.08 | 0.657 ± 0.097 | 0.604 ± 0.085 | 0.512 ± 0.074 | – | – | – | –
1 µM, coculture fibroblast: HCPF | 0.826 ± 0.023 | 0.752 ± 0.023 | 0.697 ± 0.018 | 0.65 ± 0.014 | 0.572 ± 0.013 | – | – | – | –
1 µM, coculture fibroblast: HHSteC | 0.863 ± 0.017 | 0.762 ± 0.027 | 0.72 ± 0.054 | 0.666 ± 0.054 | – | – | – | – | –
1 µM, coculture fibroblast: HMF | 0.799 ± 0.025 | 0.776 ± 0.024 | 0.68 ± 0.027 | 0.638 ± 0.024 | – | – | – | – | –
1 µM, coculture fibroblast: HPFa | 0.8952 ± 0.0082 | 0.788 ± 0.016 | 0.726 ± 0.0099 | 0.6227 ± 0.00097 | – | – | – | – | –
1 µM, coculture fibroblast: HUF | 0.894 ± 0.034 | 0.7803 ± 0.0051 | 0.7289 ± 0.002 | 0.6278 ± 0.005 | – | – | – | – | –
1 µM, coculture fibroblast: Hs5 | 0.8291 ± 0.0021 | 0.78 ± 0.034 | 0.719 ± 0.035 | 0.707 ± 0.02 | – | – | – | – | –
1 µM, coculture fibroblast: Hs27A | 0.8 ± 0.017 | 0.745 ± 0.02 | 0.735 ± 0.0075 | 0.76 ± 0.016 | – | – | – | – | –
1 µM, coculture fibroblast: Hs343T | 0.829 ± 0.032 | 0.797 ± 0.036 | 0.751 ± 0.062 | 0.723 ± 0.096 | – | – | – | – | –
1 µM, coculture fibroblast: WS1 | 0.796 ± 0.049 | 0.649 ± 0.036 | 0.586 ± 0.057 | 0.484 ± 0.063 | – | – | – | – | –

± gives the standard deviation of the averaged measurements. Values are relative to the signal before dosing, not to a vehicle control; the signal also falls without drug.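 Fibroblast labels denote human fibroblasts, mainly primary ones from uterus (C12385, HUF), lung (H6013), bone (Hs27A), adrenal (HADF) and skin (WS1), plus mammary HMF and breast cancer-associated Hs343T. Cancer cells are basal-like or mesenchymal-like triple-negative breast cancer lines. A hit is a response shift exceeding 3x replicate standard deviation. The tissue of the other fibroblasts is not given here.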
